Results are given in words; binding and its absence hold for the method and conditions named. Binding seen in cells or lysates may run through a third protein. Some results given as binding are weak or reduced against the parent protein; the word gives no strength. Tags and fused reporters may be left off the sequences shown.
Columns and labels:
Experiment in all cases: pull-down; His-tagged protein co-expressed with the untagged partner in E. coli; membranes solubilised in DDM; His-tagged protein held on a HisTrap column (50 mM Tris-HCl pH 7.5, 300 mM NaCl, 10% glycerol, 1 mM DDM, 50 mM imidazole), eluted with an imidazole gradient; SDS-PAGE with Coomassie, Bocillin FL fluorescence or anti-HA blot
[1] = molecular target: T1, His-FtsW (wild type, E. coli) (E. coli) (UniProt P0ABG4)
T1 sequence: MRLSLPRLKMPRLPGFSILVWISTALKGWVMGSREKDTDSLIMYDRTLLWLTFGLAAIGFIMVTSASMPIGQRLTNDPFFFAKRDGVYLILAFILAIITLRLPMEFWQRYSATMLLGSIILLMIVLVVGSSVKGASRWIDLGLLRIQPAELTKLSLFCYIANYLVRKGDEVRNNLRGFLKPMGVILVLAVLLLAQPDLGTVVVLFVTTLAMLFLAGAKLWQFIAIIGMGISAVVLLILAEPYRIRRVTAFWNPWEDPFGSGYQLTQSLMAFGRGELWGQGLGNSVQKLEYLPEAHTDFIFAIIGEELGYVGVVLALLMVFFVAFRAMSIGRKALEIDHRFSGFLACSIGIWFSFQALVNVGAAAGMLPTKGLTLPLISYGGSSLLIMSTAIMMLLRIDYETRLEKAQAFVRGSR

His-FtsW D297A (E. coli) = molecular target: T2, His-FtsW D297A (E. coli) (UniProt P0ABG4)
T2 sequence: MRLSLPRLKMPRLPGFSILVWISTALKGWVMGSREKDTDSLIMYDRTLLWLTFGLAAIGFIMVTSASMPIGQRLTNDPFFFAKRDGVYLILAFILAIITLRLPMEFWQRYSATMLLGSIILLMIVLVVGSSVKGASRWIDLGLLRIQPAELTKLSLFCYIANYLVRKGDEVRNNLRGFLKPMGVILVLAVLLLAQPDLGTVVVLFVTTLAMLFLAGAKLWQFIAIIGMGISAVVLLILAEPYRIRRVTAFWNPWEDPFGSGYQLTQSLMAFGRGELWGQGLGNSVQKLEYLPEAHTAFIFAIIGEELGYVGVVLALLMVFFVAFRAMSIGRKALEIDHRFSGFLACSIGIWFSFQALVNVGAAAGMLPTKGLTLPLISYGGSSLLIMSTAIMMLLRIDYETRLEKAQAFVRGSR

His-FtsW G199A (E. coli) = molecular target: T3, His-FtsW G199A (E. coli) (UniProt P0ABG4)
T3 sequence: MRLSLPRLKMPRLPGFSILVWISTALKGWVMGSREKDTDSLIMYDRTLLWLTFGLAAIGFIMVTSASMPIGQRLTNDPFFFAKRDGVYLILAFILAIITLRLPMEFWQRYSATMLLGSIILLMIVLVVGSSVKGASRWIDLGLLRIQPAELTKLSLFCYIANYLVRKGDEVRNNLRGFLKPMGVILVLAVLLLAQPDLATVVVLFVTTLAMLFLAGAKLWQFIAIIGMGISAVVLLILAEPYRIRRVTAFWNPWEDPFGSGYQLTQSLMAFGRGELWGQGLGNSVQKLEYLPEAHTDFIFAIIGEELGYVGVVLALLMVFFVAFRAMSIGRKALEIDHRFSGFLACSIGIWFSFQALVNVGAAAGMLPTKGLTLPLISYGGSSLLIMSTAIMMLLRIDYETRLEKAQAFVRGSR

His-FtsW G371S (E. coli) = molecular target: T4, His-FtsW G371S (E. coli) (UniProt P0ABG4)
T4 sequence: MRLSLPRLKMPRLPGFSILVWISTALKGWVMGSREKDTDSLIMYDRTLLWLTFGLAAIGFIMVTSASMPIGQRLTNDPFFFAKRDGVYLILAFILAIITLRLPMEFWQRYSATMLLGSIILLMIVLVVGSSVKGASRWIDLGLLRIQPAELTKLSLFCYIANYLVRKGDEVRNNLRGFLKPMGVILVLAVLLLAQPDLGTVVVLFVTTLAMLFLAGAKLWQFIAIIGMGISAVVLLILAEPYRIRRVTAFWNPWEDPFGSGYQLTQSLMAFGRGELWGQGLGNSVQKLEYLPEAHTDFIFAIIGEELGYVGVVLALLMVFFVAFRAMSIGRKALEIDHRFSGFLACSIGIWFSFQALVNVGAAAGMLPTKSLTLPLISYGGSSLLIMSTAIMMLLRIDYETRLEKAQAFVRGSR

His-FtsW Q147E (E. coli) = molecular target: T5, His-FtsW Q147E (E. coli) (UniProt P0ABG4)
T5 sequence: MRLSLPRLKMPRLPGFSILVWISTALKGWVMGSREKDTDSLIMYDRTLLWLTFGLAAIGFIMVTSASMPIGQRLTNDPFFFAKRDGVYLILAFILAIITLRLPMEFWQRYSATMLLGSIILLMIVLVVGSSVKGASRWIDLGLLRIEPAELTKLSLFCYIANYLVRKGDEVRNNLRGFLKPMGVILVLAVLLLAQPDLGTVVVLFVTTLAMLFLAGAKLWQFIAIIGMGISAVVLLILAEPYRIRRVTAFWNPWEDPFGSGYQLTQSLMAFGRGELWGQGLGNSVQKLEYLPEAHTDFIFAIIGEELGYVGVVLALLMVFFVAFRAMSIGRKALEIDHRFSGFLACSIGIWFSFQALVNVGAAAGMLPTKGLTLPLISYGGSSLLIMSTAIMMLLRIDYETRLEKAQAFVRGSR

- binding [1]: binds
- binding (His-FtsW D297A (E. coli)): binds
- binding (His-FtsW G199A (E. coli)): binds
- binding (His-FtsW G371S (E. coli)): binds
- binding (His-FtsW Q147E (E. coli)): binds
B1: FtsI(PBP3), untagged (E. coli) (enzyme, UniProt P0AD68 1-577)
chain: MKAAAKTQKPKRQEEHANFISWRFALLCGCILLALAFLLGRVAWLQVISPDMLVKEGDMRSLRVQQVSTSRGMITDRSGRPLAVSVPVKAIWADPKEVHDAGGISVGDRWKALANALNIPLDQLSARINANPKGRFIYLARQVNPDMADYIKKLKLPGIHLREESRRYYPSGEVTAHLIGFTNVDSQGIEGVEKSFDKWLTGQPGERIVRKDRYGRVIEDISSTDSQAAHNLALSIDERLQALVYRELNNAVAFNKAESGSAVLVDVNTGEVLAMANSPSYNPNNLSGTPKEAMRNRTITDVFEPGSTVKPMVVMTALQRGVVRENSVLNTIPYRINGHEIKDVARYSELTLTGVLQKSSNVGVSKLALAMPSSALVDTYSRFGLGKATNLGLVGERSGLYPQKQRWSDIERATFSFGYGLMVTPLQLARVYATIGSYGIYRPLSITKVDPPVPGERVFPESIVRTVVHMMESVALPGGGGVKAAIKGYRIAIKTGTAKKVGPDGRYINKYIAYTAGVAPASQPRFALVVVINDPQAGKYYGGAVSAPVFGAIMGGVLRTMNIEPDALTTGDKNEFV

From publication PMC8765783, “Identification of the potential active site of the septal peptidoglycan polymerase FtsW” (PLoS Genetics, 2022)
